No constants are given. Whether binding was seen depends on the method and setting. Tags and fused reporters may be left off the sequences shown.

Among the data in article PMC10217940 are binding values, retold here.

This experiment concerns the target IPT, yeast two-hybrid fusion (Arabidopsis). Put plainly: two-hybrid; split-ubiquitin-based yeast two-hybrid (SUB-Y2H, Dualsystems); IMPs in the pGADT7 bait vector, EIN2C in the pGBKT7 prey vector.

B1: EIN2C (EIN2^454–1294), yeast two-hybrid fusion (domain or fragment, UniProt Q9S814 454-1294)
chain: LWLAATPLKSASNRAEAQIWNMDAQNALSYPSVQEEEIERTETRRNEDESIVRLESRVKDQLDTTSVTSSVYDLPENILMTDQEIRSSPPEERELDVKYSTSQVSSLKEDSDVKEQSVLQSTVVNEVSDKDLIVETKMAKIEPMSPVEKIVSMENNSKFIEKDVEGVSWETEEATKAAPTSNFTVGSDGPPSFRSLSGEGGSGTGSLSRLQGLGRAARRHLSAILDEFWGHLYDFHGQLVAEARAKKLDQLFGTDQKSASSMKADSFGKDISSGYCMSPTAKGMDSQMTSSLYDSLKQQRTPGSIDSLYGLQRGSSPSPLVNRMQMLGAYGNTTNNNNAYELSERRYSSLRAPSSSEGWEHQQPATVHGYQMKSYVDNLAKERLEALQSRGEIPTSRSMALGTLSYTQQLALALKQKSQNGLTPGPAPGFENFAGSRSISRQSERSYYGVPSSGNTDTVGAAVANEKKYSSMPDISGLSMSARNMHLPNNKSGYWDPSSGGGGYGASYGRLSNESSLYSNLGSRVGVPSTYDDISQSRGGYRDAYSLPQSATTGTGSLWSRQPFEQFGVAERNGAVGEELRNRSNPINIDNNASSNVDAEAKLLQSFRHCILKLIKLEGSEWLFGQSDGVDEELIDRVAAREKFIYEAEAREINQVGHMGEPLISSVPNCGDGCVWRADLIVSFGVWCIHRVLDLSLMESRPELWGKYTYVLNRLQGVIDPAFSKLRTPMTPCFCLQIPASHQRASPTSANGMLPPAAKPAKGKCTTAVTLLDLIKDVEMAISCRKGRTGTAAGDVAFPKGKENLASVLKRYKRRLSNKPVGMNQDGPGSRKNVTAYGSLG
With B1, the binding result is given as “no binding”.
